Assay results taken from PMC11419264.
These are yes or no findings as the source states them, for the method shown. In cells and extracts the contact can be indirect. Some results given as binding are weak or reduced against the parent protein; the word gives no strength. Where a sequence is shown, tags or fusion partners need not be part of it.

By UniProt entry, the sequences of proteins in these tests, tags left out. Residues count along the entry.
UniProt P40939, residues 37-763: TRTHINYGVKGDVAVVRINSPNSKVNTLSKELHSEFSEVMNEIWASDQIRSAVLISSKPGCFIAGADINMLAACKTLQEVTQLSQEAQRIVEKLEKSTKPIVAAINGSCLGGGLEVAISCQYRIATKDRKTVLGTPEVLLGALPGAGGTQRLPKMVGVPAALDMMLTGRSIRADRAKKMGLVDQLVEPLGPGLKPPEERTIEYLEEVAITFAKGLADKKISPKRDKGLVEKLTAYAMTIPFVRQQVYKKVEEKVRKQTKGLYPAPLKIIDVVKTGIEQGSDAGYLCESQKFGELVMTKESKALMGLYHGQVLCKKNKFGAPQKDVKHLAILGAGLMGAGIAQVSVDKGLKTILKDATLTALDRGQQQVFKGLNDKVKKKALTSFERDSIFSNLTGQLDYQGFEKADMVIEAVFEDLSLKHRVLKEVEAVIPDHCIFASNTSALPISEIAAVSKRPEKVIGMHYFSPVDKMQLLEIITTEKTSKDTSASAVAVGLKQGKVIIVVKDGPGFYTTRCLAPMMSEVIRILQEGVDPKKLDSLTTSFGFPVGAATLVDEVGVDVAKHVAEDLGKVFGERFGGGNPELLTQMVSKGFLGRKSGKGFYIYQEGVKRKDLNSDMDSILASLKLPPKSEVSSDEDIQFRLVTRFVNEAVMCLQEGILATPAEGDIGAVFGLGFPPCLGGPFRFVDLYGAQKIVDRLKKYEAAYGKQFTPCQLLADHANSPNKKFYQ

T1: ECHB, beta subunit of the mitochondrial trifunctional protein (mTFP) (human (endogenous in HEK293)) (UniProt P55084)
T1 sequence: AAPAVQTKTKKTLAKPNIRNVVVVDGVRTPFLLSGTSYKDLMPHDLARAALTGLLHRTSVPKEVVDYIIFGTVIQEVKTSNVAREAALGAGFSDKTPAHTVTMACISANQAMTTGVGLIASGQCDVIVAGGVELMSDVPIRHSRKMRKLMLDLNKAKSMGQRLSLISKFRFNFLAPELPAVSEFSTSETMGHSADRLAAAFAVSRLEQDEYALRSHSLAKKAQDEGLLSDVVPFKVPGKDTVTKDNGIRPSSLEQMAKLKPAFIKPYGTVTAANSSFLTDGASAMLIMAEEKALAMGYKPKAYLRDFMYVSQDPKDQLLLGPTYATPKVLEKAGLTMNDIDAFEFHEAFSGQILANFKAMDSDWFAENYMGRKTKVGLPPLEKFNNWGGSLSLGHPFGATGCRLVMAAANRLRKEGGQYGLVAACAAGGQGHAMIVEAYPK

T2: Human CALHM2 Myc-DDK-tagged (human) (UniProt Q9HA72)
T2 sequence: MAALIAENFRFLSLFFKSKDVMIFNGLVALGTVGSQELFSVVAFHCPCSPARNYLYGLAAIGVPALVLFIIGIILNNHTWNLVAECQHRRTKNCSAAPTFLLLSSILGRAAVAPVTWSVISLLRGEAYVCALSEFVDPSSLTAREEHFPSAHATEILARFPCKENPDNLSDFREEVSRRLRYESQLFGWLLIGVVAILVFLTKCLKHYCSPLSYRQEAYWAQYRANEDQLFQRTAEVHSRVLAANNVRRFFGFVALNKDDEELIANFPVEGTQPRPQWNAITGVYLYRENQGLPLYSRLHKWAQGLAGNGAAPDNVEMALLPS


What was measured:
Assay in all cases: co-IP; CALHM2-myc transfected into HEK293 cells; lysis in NP-40 buffer (150 mM NaCl, 1.0% NP40, 50 mM Tris, pH 8.0); pre-cleared with Protein A beads; primary antibody overnight at 4°C; Protein A beads; western blot; IgG control
[1] = molecular target: T1, ECHB, beta subunit of the mitochondrial trifunctional protein (mTFP) (human (endogenous in HEK293))
[2] = molecular target: T2, Human CALHM2 Myc-DDK-tagged (human)
[3] = molecular target: ECHA, alpha subunit of the mitochondrial trifunctional protein (mTFP) (human (endogenous in HEK293)) (UniProt P40939)

Molecule	binding [1]	binding [2]	binding [3]
ECHA, alpha subunit of the mitochondrial trifunctional protein (mTFP) (from UniProt P40939 37-763)	binds	binds	
Human CALHM2 Myc-DDK-tagged (protein, UniProt Q9HA72 1-323) MAALIAENFRFLSLFFKSKDVMIFNGLVALGTVGSQELFSVVAFHCPCSPARNYLYGLAAIGVPALVLFIIGIILNNHTWNLVAECQHRRTKNCSAAPTFLLLSSILGRAAVAPVTWSVISLLRGEAYVCALSEFVDPSSLTAREEHFPSAHATEILARFPCKENPDNLSDFREEVSRRLRYESQLFGWLLIGVVAILVFLTKCLKHYCSPLSYRQEAYWAQYRANEDQLFQRTAEVHSRVLAANNVRRFFGFVALNKDDEELIANFPVEGTQPRPQWNAITGVYLYRENQGLPLYSRLHKWAQGLAGNGAAPDNVEMALLPS	binds		binds
